Laboratory results as given in the supplement of paper PMC7661543.
± gives the standard deviation of the averaged measurements. The effect of the compound repeats well; differences between the knockouts mostly do not.

Tested on: SKBR3
Assay: relative cell number vs DMSO control (72 h) (% of DMSO); higher = less growth inhibition (more cells)
Experimental: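 QMAP-Seq: a pool of 5 breast cancer cell lines (ZR-75-1, SKBR3, HCC-38, MDA-MB-231, BT-20), each carrying 12 doxycycline-inducible Cas9 sgRNA perturbations (11 knockouts plus non-targeting sgNT), was treated with compounds for 72 h at four 10-fold doses (10 nM-10 uM or 1 nM-1 uM range). Barcodes were amplified and sequenced, and cell number was interpolated from 293T spike-in standard curves. The result is expressed as % of the median of DMSO wells. Two biological replicates.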

COc1cc(OC)c(/C=C/S(=O)(=O)Cc2ccc(OC)c(NCC(=O)O)c2)c(OC)c1 [Rigosertib]
Conditions | relative cell number
sgRNA knockout: sgATF3, 10 nM | 92.4 ± 7.7
sgRNA knockout: sgATF3, 100 nM | 14.7 ± 6.6
sgRNA knockout: sgATF3, 1000 nM | 13.4 ± 5.8
sgRNA knockout: sgATF3, 10000 nM | 12.6 ± 4.1
sgRNA knockout: sgATF4, 10 nM | 88 ± 26
sgRNA knockout: sgATF4, 100 nM | 14.2 ± 2.3
sgRNA knockout: sgATF4, 1000 nM | 11.5 ± 2.8
sgRNA knockout: sgATF4, 10000 nM | 13.82 ± 0.1
sgRNA knockout: sgATF6, 10 nM | 84.4 ± 25
sgRNA knockout: sgATF6, 100 nM | 13.8 ± 0.89
sgRNA knockout: sgATF6, 1000 nM | 10.5 ± 2.4
sgRNA knockout: sgATF6, 10000 nM | 9.03 ± 0.69
sgRNA knockout: sgATG7, 10 nM | 115 ± 21
sgRNA knockout: sgATG7, 100 nM | 16.08 ± 0.12
sgRNA knockout: sgATG7, 1000 nM | 7.19 ± 1.3
sgRNA knockout: sgATG7, 10000 nM | 13.4 ± 7.7
sgRNA knockout: sgERN1, 10 nM | 92.8 ± 3.5
sgRNA knockout: sgERN1, 100 nM | 13 ± 1.7
sgRNA knockout: sgERN1, 1000 nM | 11.2 ± 2.1
sgRNA knockout: sgERN1, 10000 nM | 9.96 ± 0.47
sgRNA knockout: sgHSF1, 10 nM | 77.2 ± 11
sgRNA knockout: sgHSF1, 100 nM | 19 ± 4.9
sgRNA knockout: sgHSF1, 1000 nM | 8.37 ± 0.6
sgRNA knockout: sgHSF1, 10000 nM | 13.2 ± 4.9
sgRNA knockout: sgHSF2, 10 nM | 96.9 ± 12
sgRNA knockout: sgHSF2, 100 nM | 19.7 ± 2.1
sgRNA knockout: sgHSF2, 1000 nM | 13.4 ± 6.5
sgRNA knockout: sgHSF2, 10000 nM | 13.2 ± 4.2
sgRNA knockout: sgKEAP1, 10 nM | 85.3 ± 31
sgRNA knockout: sgKEAP1, 100 nM | 15.2 ± 0.46
sgRNA knockout: sgKEAP1, 1000 nM | 13.1 ± 4.3
sgRNA knockout: sgKEAP1, 10000 nM | 12.4 ± 2.3
sgRNA knockout: sgNFE2L2, 10 nM | 99.6 ± 11
sgRNA knockout: sgNFE2L2, 100 nM | 15.8 ± 2.6
sgRNA knockout: sgNFE2L2, 1000 nM | 9.943 ± 0.041
sgRNA knockout: sgNFE2L2, 10000 nM | 11.8 ± 4.7
sgRNA knockout: sgSLC35F2, 10 nM | 83.3 ± 3
sgRNA knockout: sgSLC35F2, 100 nM | 15.9 ± 1.9
sgRNA knockout: sgSLC35F2, 1000 nM | 12.1 ± 7.2
sgRNA knockout: sgSLC35F2, 10000 nM | 12.15 ± 0.075
sgRNA knockout: sgXBP1, 10 nM | 78.9 ± 27
sgRNA knockout: sgXBP1, 100 nM | 9.14 ± 2.8
sgRNA knockout: sgXBP1, 1000 nM | 9 ± 1.9
sgRNA knockout: sgXBP1, 10000 nM | 13.8 ± 2.1

CN(Cc1cnc2nc(N)nc(N)c2n1)c1ccc(C(=O)N[C@@H](CCC(=O)O)C(=O)O)cc1 [Methotrexate]
Conditions | relative cell number
sgRNA knockout: sgATF3, 10 nM | 101 ± 9.8
sgRNA knockout: sgATF3, 100 nM | 48.2 ± 8.7
sgRNA knockout: sgATF3, 1000 nM | 22.8 ± 1.5
sgRNA knockout: sgATF3, 10000 nM | 15 ± 1.2
sgRNA knockout: sgATF4, 10 nM | 98.2 ± 3
sgRNA knockout: sgATF4, 100 nM | 47.8 ± 2.5
sgRNA knockout: sgATF4, 1000 nM | 28.52 ± 0.22
sgRNA knockout: sgATF4, 10000 nM | 20.35 ± 0.05
sgRNA knockout: sgATF6, 10 nM | 90.1 ± 26
sgRNA knockout: sgATF6, 100 nM | 47.2 ± 8
sgRNA knockout: sgATF6, 1000 nM | 23.4 ± 2.6
sgRNA knockout: sgATF6, 10000 nM | 22.3 ± 2
sgRNA knockout: sgATG7, 10 nM | 98.7 ± 11
sgRNA knockout: sgATG7, 100 nM | 37.6 ± 2.8
sgRNA knockout: sgATG7, 1000 nM | 17.98 ± 0.038
sgRNA knockout: sgATG7, 10000 nM | 18.1 ± 4.9
sgRNA knockout: sgERN1, 10 nM | 81.3 ± 22
sgRNA knockout: sgERN1, 100 nM | 38.07 ± 0.2
sgRNA knockout: sgERN1, 1000 nM | 21.8 ± 0.69
sgRNA knockout: sgERN1, 10000 nM | 19.3 ± 0.99
sgRNA knockout: sgHSF1, 10 nM | 74.3 ± 19
sgRNA knockout: sgHSF1, 100 nM | 44.32 ± 0.12
sgRNA knockout: sgHSF1, 1000 nM | 27.5 ± 4.7
sgRNA knockout: sgHSF1, 10000 nM | 14.5 ± 3.8
sgRNA knockout: sgHSF2, 10 nM | 94.9 ± 2.1
sgRNA knockout: sgHSF2, 100 nM | 46.7 ± 1.8
sgRNA knockout: sgHSF2, 1000 nM | 24 ± 3.4
sgRNA knockout: sgHSF2, 10000 nM | 18 ± 0.47
sgRNA knockout: sgKEAP1, 10 nM | 76.7 ± 2.4
sgRNA knockout: sgKEAP1, 100 nM | 49.2 ± 8.7
sgRNA knockout: sgKEAP1, 1000 nM | 21.4 ± 4
sgRNA knockout: sgKEAP1, 10000 nM | 15.4 ± 3.7
sgRNA knockout: sgNFE2L2, 10 nM | 92.4 ± 16
sgRNA knockout: sgNFE2L2, 100 nM | 37.76 ± 0.21
sgRNA knockout: sgNFE2L2, 1000 nM | 23.7 ± 9.5
sgRNA knockout: sgNFE2L2, 10000 nM | 18.6 ± 4
sgRNA knockout: sgSLC35F2, 10 nM | 88.6 ± 23
sgRNA knockout: sgSLC35F2, 100 nM | 39.3 ± 1.6
sgRNA knockout: sgSLC35F2, 1000 nM | 14.2 ± 0.035
sgRNA knockout: sgSLC35F2, 10000 nM | 17.6 ± 4
sgRNA knockout: sgXBP1, 10 nM | 108 ± 8.1
sgRNA knockout: sgXBP1, 100 nM | 49.6 ± 4.4
sgRNA knockout: sgXBP1, 1000 nM | 21.47 ± 0.08
sgRNA knockout: sgXBP1, 10000 nM | 21.2 ± 4.3

S=c1nc[nH]c2nc[nH]c12 [6-Mercaptopurine]
Conditions | relative cell number
sgRNA knockout: sgATF3, 10 nM | 102 ± 7.1
sgRNA knockout: sgATF3, 100 nM | 68.7 ± 12
sgRNA knockout: sgATF3, 1000 nM | 72.5 ± 9.7
sgRNA knockout: sgATF3, 10000 nM | 66.2 ± 9.1
sgRNA knockout: sgATF4, 10 nM | 89.8 ± 10
sgRNA knockout: sgATF4, 100 nM | 96.03 ± 0.79
sgRNA knockout: sgATF4, 1000 nM | 82.6 ± 6.8
sgRNA knockout: sgATF4, 10000 nM | 46.4 ± 4.5
sgRNA knockout: sgATF6, 10 nM | 106 ± 8.8
sgRNA knockout: sgATF6, 100 nM | 74.1 ± 9.3
sgRNA knockout: sgATF6, 1000 nM | 75.6 ± 20
sgRNA knockout: sgATF6, 10000 nM | 48.3 ± 4.4
sgRNA knockout: sgATG7, 10 nM | 82.8 ± 4.4
sgRNA knockout: sgATG7, 100 nM | 78.5 ± 4.6
sgRNA knockout: sgATG7, 1000 nM | 79.6 ± 33
sgRNA knockout: sgATG7, 10000 nM | 47.3 ± 7.4
sgRNA knockout: sgERN1, 10 nM | 97.1 ± 6.3
sgRNA knockout: sgERN1, 100 nM | 91.6 ± 20
sgRNA knockout: sgERN1, 1000 nM | 66.6 ± 7
sgRNA knockout: sgERN1, 10000 nM | 61.2 ± 16
sgRNA knockout: sgHSF1, 10 nM | 111 ± 27
sgRNA knockout: sgHSF1, 100 nM | 90.8 ± 4.7
sgRNA knockout: sgHSF1, 1000 nM | 86.7 ± 9.4
sgRNA knockout: sgHSF1, 10000 nM | 56.4 ± 6.6
sgRNA knockout: sgHSF2, 10 nM | 92.9 ± 6.3
sgRNA knockout: sgHSF2, 100 nM | 91.8 ± 1.5
sgRNA knockout: sgHSF2, 1000 nM | 65.5 ± 9.2
sgRNA knockout: sgHSF2, 10000 nM | 51.6 ± 15
sgRNA knockout: sgKEAP1, 10 nM | 95.1 ± 9.5
sgRNA knockout: sgKEAP1, 100 nM | 77.5 ± 29
sgRNA knockout: sgKEAP1, 1000 nM | 59.9 ± 6.3
sgRNA knockout: sgKEAP1, 10000 nM | 47.2 ± 14
sgRNA knockout: sgNFE2L2, 10 nM | 81.2 ± 1.9
sgRNA knockout: sgNFE2L2, 100 nM | 73 ± 16
sgRNA knockout: sgNFE2L2, 1000 nM | 70.5 ± 26
sgRNA knockout: sgNFE2L2, 10000 nM | 57.6 ± 11
sgRNA knockout: sgSLC35F2, 10 nM | 86.04 ± 0.21
sgRNA knockout: sgSLC35F2, 100 nM | 69.5 ± 12
sgRNA knockout: sgSLC35F2, 1000 nM | 63.8 ± 20
sgRNA knockout: sgSLC35F2, 10000 nM | 65 ± 3.6
sgRNA knockout: sgXBP1, 10 nM | 107 ± 4.9
sgRNA knockout: sgXBP1, 100 nM | 95.2 ± 3.8
sgRNA knockout: sgXBP1, 1000 nM | 65.9 ± 14
sgRNA knockout: sgXBP1, 10000 nM | 54.4 ± 6.6
